Measured values from PubChem BioAssay AID1671190 (National Center for Advancing Translational Sciences (NCATS), 2021).
Where “and” joins values, the source holds several entries; their conditions need not be identical. Identical values can stand only once. Screen size: about 580,000 compounds; about 6,100 (1.1%) were called active. Inconclusive results, whose numbers are uncertain, are shown with a selection of clear calls. Calls follow the shape of the dose curve; as a rule, active = well fitted inhibition curve with a large enough effect; inconclusive = small, poorly fitted or top-dose-only effect, or another doubt; inactive = no such curve, though single readings can be large or run the other way. Where the call is inconclusive, the potency comes from a doubtful curve fit. Square brackets hold non-standard residues; d marks the D form. Peptide text beside a SMILES is read from it. * marks the point of attachment. ξ: configuration not given here. Piv = CC(C)(C)C(=O)*; ξNva = CCCC(N)C(=O)O

Amino acid sequences for entries named in this document (tags omitted).
UniProt P18054, whole entry, looked up: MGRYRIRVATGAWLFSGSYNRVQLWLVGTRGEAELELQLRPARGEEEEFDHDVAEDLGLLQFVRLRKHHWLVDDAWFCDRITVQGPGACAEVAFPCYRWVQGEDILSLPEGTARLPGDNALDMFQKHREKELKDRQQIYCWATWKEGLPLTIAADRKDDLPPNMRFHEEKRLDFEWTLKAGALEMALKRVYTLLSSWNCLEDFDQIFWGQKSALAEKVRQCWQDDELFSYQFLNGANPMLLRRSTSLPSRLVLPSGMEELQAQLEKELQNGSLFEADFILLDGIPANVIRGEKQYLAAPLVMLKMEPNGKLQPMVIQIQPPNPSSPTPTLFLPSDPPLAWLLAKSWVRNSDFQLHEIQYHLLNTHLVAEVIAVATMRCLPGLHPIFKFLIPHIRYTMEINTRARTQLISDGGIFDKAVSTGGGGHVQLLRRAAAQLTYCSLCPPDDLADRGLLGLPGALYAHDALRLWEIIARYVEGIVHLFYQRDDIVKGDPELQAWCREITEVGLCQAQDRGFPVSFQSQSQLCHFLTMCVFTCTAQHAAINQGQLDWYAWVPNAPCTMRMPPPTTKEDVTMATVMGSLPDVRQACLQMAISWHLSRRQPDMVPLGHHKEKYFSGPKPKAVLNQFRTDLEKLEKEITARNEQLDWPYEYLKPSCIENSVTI

Molecular target: Polyunsaturated fatty acid lipoxygenase ALOX12 (Homo sapiens) (UniProt P18054)
Experiment: Primary qHTS assay for inhibitors of human arachidonate 12S-lipoxygenase (ALOX12): Round 2
Conditions: purified 12hLO, xylenol orange hydroperoxide absorbance; activity change, negative = inhibition: at 108 µM (top of the series) unless noted
Summary of the method: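 Hydroperoxide product was detected by ferrous iron/xylenol orange as the 573 to 405 nm absorbance ratio. Arachidonic acid at 40 uM (final) was turned over for 30 min at room temperature by 150 nM human 12hLO, pH 7.0 Hepes buffer, after 15 min compound preincubation.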
% is scaled to controls: 0 for no effect and ±100 for the full control effect; potency is read from the fitted curve at half-maximal effect.

SMILES | activity change, negative = inhibition | Potency
COc1ccc2c(=O)c(Oc3ccc(C)cc3)c(C(F)(F)F)oc2c1 | inactive: 18.2% | 
CCC1CCc2c(sc(NC(=O)CC(C)(C)C)c2C#N)C1 (stereo not given) | inactive: -0.128% | 
CN(C(=O)c1c[nH]c2ccc(S(=O)(=O)Nc3cccc(C(F)(F)F)c3)cc2c1=O)C1CCCCC1 |  | inconclusive: 126 µM [inhibitor, single point]
N#Cc1c(SCCN2CCCC2)nc(N2CCCC2)c2c1CCCC2 |  | inconclusive: 44.7 µM [inhibitor, partial curve, poor fit]
CCn1c(=O)cc(OCC(=O)N2CCN(c3ccc(C(C)=O)cc3)CC2)c2ccccc21 | inactive: -21.4% | 
COc1cccc2sc(NC(=O)c3ccc(S(=O)(=O)N4CCOCC4)cc3)nc12 |  | inconclusive: 141 µM [inhibitor, partial curve, poor fit]
COc1ccccc1-c1nc(S(=O)(=O)c2ccc3c(c2)OCCO3)c(NCCCN(C)C)o1 |  | inconclusive: 89.1 µM [inhibitor, single point]
CC(=O)Nc1ccc(NC(=O)CN2C(=O)CC(c3ccco3)Sc3ccccc32)cc1 (stereo not given) |  | inconclusive: 158 µM [inhibitor, partial curve, poor fit]
CCC1(O)CCC12CCN(C(=O)CC1CCCC1)CC2 (stereo not given) | inactive: 39.4% | 
OCCC1CN(Cc2cn[nH]c2-c2ccc(F)cc2)CCN1Cc1cccs1 (stereo not given) | inactive: 19.6% | 
CCOc1ccc(NC(=O)Nc2ccc(Cc3ccncc3)cc2)cc1 | inactive: -6.96% | 
Nc1ccn([C@@H]2O[C@H](C(=O)N3CCCN(Cc4cccs4)CC3)[C@@H](O)[C@H]2O)c(=O)n1 |  | inconclusive: 79.4 µM [inhibitor, single point]
Cc1cc(NS(=O)(=O)c2ccc(NC(=S)NCc3ccccc3)cc2)no1 |  | active: 44.7 µM
CC(C)Cc1nc(OCC(N)=O)c(C#N)c2c1CCCC2 | inactive: -32.2% | 
COCC(C)n1c(SCC(=O)Nc2sccc2C(N)=O)nc2ccccc2c1=O (stereo not given) |  | inconclusive: 100 µM [inhibitor, single point]
Cc1nn(-c2ccccc2)c(C)c1C(=O)OCC(=O)Nc1ccc(C(N)=O)cc1 | inactive: -27.8% | 
O=C(O)C1CCCN(CCC=C(c2ccccc2)c2ccccc2)C1 (stereo not given) |  | inconclusive: 25.1 µM [inhibitor, single point]
Cc1ccc(N(C(C)C(=O)NCc2ccncc2)S(C)(=O)=O)cc1C (stereo not given) |  | inconclusive: 44.7 µM [inhibitor, partial curve, poor fit]
O=C1N(c2ccccc2)C[C@@H]2C[C@@H](c3cccs3)N3CCC[C@@]123 |  | inconclusive: 50.1 µM [inhibitor, partial curve, poor fit]
S=c1[nH]nc(Cc2noc3ccccc23)n1-c1ccc(Cl)cc1 |  | inconclusive: 50.1 µM [inhibitor, partial curve, poor fit]
COc1ccccc1N1CCN(C(=O)Cn2cccc2-c2nc(-c3ccc(F)cc3)no2)CC1 |  | inconclusive: 70.8 µM [inhibitor, partial curve, poor fit]
CC1CCCCN1C(=O)COC(=O)c1cc([N+](=O)[O-])ccc1N (stereo not given) |  | inconclusive: 44.7 µM [inhibitor, partial curve, poor fit]
O=C(NNc1ccc([N+](=O)[O-])cc1)c1ccco1 |  | inconclusive: 79.4 µM [inhibitor, partial curve, poor fit]
CC(C)Cn1c(COc2ccccc2Cl)n[nH]c1=S |  | inconclusive: 17.8 µM [inhibitor, partial curve, poor fit]

SMILES | activity change, negative = inhibition | Potency
Cc1cc2occ(CC(=O)NCc3cccs3)c2cc1C(C)C | inactive: -18.1% | 
CN(CC1COCCO1)C(=O)c1coc(COc2ccc3c(c2)OCO3)n1 (stereo not given) | inactive: 5.62% | 
Cc1ccc(S(=O)(=O)CC(=O)Nc2ccc3nc(C)sc3c2)cc1 | inactive: -1.34% | 
O=C(NNC(=S)Nc1ccc(Br)cc1Cl)c1ccco1 |  | inconclusive: 89.1 µM [inhibitor, partial curve, poor fit]
CC(OC(=O)c1cc(S(=O)(=O)N(C)C)ccc1N1CCCC1)C(=O)NC1CCCC1 (stereo not given) | inactive: 7.01% | 
Cc1cc(CNC(=O)C(C)n2cc([N+](=O)[O-])cn2)c2ccccc2n1 (stereo not given) | inactive: -15.1% | 
O=C(CCC[C@H]1NC[C@@H]2CC1CN(Cc1ccccc1)C2)NCc1ccc(F)cc1 |  | inconclusive: 3.55 µM [inhibitor, full curve]
Cc1ccc(S(=O)(=O)CCC(=O)Nc2ccc(Br)cc2)cc1 | inactive: -2.3% | 
O=C(CSc1nnc(-c2ccncc2)n1C1CC1)c1cc2cc(Cl)ccc2o1 |  | inconclusive: 126 µM [inhibitor, single point]
Cc1ccc(CN2CCN(c3ccccn3)CC2)s1 |  | inconclusive: 0.562 µM [inhibitor, full curve, poor fit]
Cc1ccc(S(=O)Cc2nc(-c3ccc(C(=O)NCc4cccnc4)cc3)oc2C)cc1 (stereo not given) |  | inconclusive: 7.08 µM [inhibitor, full curve, poor fit]
CCOC(=O)c1c(-c2ccccc2)csc1NC(=O)C1CCCO1 (stereo not given) |  | inconclusive: 39.8 µM [inhibitor, partial curve]
CC(=O)Nc1sc(N/N=C\c2ccc(O)cc2)nc1-c1cccs1 |  | inconclusive: 44.7 µM [inhibitor, partial curve]
O=C1CC(C(=O)NOCc2ccccc2)c2ccccc2N1 (stereo not given) |  | inconclusive: 112 µM [inhibitor, single point]
Cc1ccc(C(=O)NCc2ccncc2)cc1S(=O)(=O)N1CCCCC1 | inactive: 0% | 
COc1ccc2oc(=O)c(-c3nnc(NCc4ccco4)s3)cc2c1 | inactive: 0% | 
O=C(CSc1ncnc2sc3c(c12)CCC3)Nc1ncc(C(F)(F)F)cc1Cl |  | inconclusive: 79.4 µM [inhibitor, partial curve, poor fit]
CNC(=O)[C@@H](c1ccccc1)N1CCC[C@H]1C(=O)NC1CCCCC1 |  | inconclusive: 11.2 µM [inhibitor, full curve]
CC(C)OC(=O)c1ccc(NC(=O)c2cc3ccccc3oc2=O)cc1 | inactive: -6.23% | 
O=C(N/N=C/c1ccc(Br)s1)c1ccccc1[N+](=O)[O-] |  | inconclusive: 89.1 µM [inhibitor, partial curve, poor fit]
CCCCc1c(-c2ccccc2OC)ncn1CCc1ccc(Cl)cc1 |  | inconclusive: 70.8 µM [inhibitor, partial curve, poor fit]
OC(c1cccc(Cl)c1)c1nccc2ccccc12 (stereo not given) |  | inconclusive: 35.5 µM [inhibitor, single point]
CCCc1cc(=O)[nH]c2nnc(SCC(=O)Nc3cc(C)on3)n12 |  | inconclusive: 35.5 µM [inhibitor, partial curve, poor fit]
Cn1c(-c2ccco2)nc2cc3ccccc3cc21 |  | inconclusive: 44.7 µM [inhibitor, partial curve, poor fit]

SMILES | activity change, negative = inhibition | Potency
COc1ccc(-c2ccc3ncc4c(c3c2)n(-c2ccc(N3CCNCC3)c(C(F)(F)F)c2)c(=O)n4C)cn1 |  | inconclusive: 30.6 µM [inhibitor, single point]
Cc1ccc(C)c(NCCCCCCCC(=O)O)c1 |  | inconclusive: 70.8 µM [inhibitor, partial curve, poor fit]
O=C(O)c1ccccc1C(=O)NNc1ccc(Cl)cc1 |  | inconclusive: 35.5 µM [inhibitor, partial curve]
CCCC(NC(=O)CNC(=O)C(C)(C)C)C(=O)O (stereo not drawn) (Piv-Gly-[ξNva]-OH) |  | inconclusive: 31.6 µM [inhibitor, single point]
COc1cccc(-n2c(SCC(=O)c3ccccc3)nc3c([nH]c4ccccc43)c2=O)c1 | inconclusive: -38.8% [inhibitor] | 
CCn1c(CC(=O)Nc2ccccc2F)nnc1SCC(=O)NC1CCCCC1 | inactive: -13.2% | 
COc1ccc2c(C)cc(SCC(=O)N3CCOCC3)nc2c1 |  | inactive and inconclusive: 35.5 µM [inhibitor, single point]
CC(CC(=O)O)CC(=O)Nc1cc([N+](=O)[O-])ccc1O (stereo not given) | inactive: -14.3% | 
CC1=C/C(=C(\c2ccc(O)c(C)c2)c2ccccc2S(=O)(=O)O)C=CC1=O |  | active: 6.31 µM
N#Cc1nc(/C=C/c2ccccc2)oc1NCc1ccccc1 |  | inconclusive: 39.8 µM [inhibitor, partial curve, poor fit]
O=C(O)c1cc(-c2ccco2)[nH]n1 | inactive: 0% | 
COc1ccc(NC(=O)Nc2sc(=S)n(C)c2C)cc1 | inactive: -18.5% | 
N#Cc1cn(Cc2ccccc2)c2ccccc12 | inactive: -16.2% | 
Cc1ccc(C(=O)NCC(c2ccco2)N2CCOCC2)cc1 (stereo not given) |  | inconclusive: 112 µM [inhibitor, partial curve, poor fit]
CN(C)c1oc(-c2ccccc2Cl)nc1S(=O)(=O)c1ccccc1 |  | inconclusive: 79.4 µM [inhibitor, single point]
O=Cc1cn(-c2ccccc2)nc1-c1cc2c(ccc3ccccc32)oc1=O | inactive: 179% | 
COc1cc(-c2cc(C(=O)O)c3cc4c(cc3n2)OCCO4)cc(OC)c1OC |  | inconclusive: 15.8 µM [inhibitor, full curve]
Cc1nnn2c(C(=O)N3CCOCC3)cccc12 | inactive: 95% [at 176 µM] | 
NS(=O)(=O)c1ccc(CNC(=O)c2cc(-c3ccccc3)nc3ccccc23)cc1 | inactive: -19.4% | 
CCCCCCCCCCCCCCCC(O)C(N)CO (stereo not given) |  | inconclusive: 50.1 µM [inhibitor, partial curve, poor fit]
COc1ccc(Cn2c(-c3ccco3)nc3oc4cc(OC)ccc4c(=O)c3c2=O)cc1 |  | inconclusive: 12.6 µM [inhibitor, partial curve, poor fit]
Cc1ccc(S(=O)(=O)/C(C#N)=C/c2c(N3CC(C)OC(C)C3)nc3c(C)cccn3c2=O)cc1 (stereo not given) |  | inconclusive: 79.4 µM [inhibitor, partial curve, poor fit]
